From publication doi:10.1101/2024.05.10.593562 (bioRxiv, 2024) come the findings set out here.

The assay addresses mutant GST-Rb379-928 (UniProt P06400). The assay is described as follows: AlphaScreen or HTRF.

No constants are given. Whether binding was seen depends on the method and setting. Binding can be weak; no strength is given.

Take “HDAC1-FLAG (from UniProt Q13547 1-482) (enzyme)”: the binding entry is reported as “binds”.
